Measured values: article PMC9260921, “Design and Synthesis of Carbothioamide/Carboxamide-Based Pyrazoline Analogs as Potential Anticancer Agents: Apoptosis, Molecular Docking, ADME Assay, and DNA Binding Studies” (ACS Omega, 2022)

Key:
Ct-DNA [1] = experiment: Time-resolved fluorescence; format: binding
Ct-DNA [2] = experiment: Circular dichroism; format: binding; details: Ct-DNA 50 μM, compound 50 μM

Structure (SMILES) | amplitude of τ1 time component (Ct-DNA [1]; upon addition of DNA) | amplitude of τ2 time component (Ct-DNA [1]; upon addition of DNA) | amplitude of τ3 time component (Ct-DNA [1]; upon addition of DNA) | lifetime τ1 (Ct-DNA [1]; with Ct-DNA, listed as 3a–DNA) | lifetime τ2 (Ct-DNA [1]; with Ct-DNA, listed as 3a–DNA) | lifetime τ3 (Ct-DNA [1]; with Ct-DNA, listed as 3a–DNA) | amplitude of τ1 time component (Ct-DNA [1]; without Ct-DNA) | amplitude of τ2 time component (Ct-DNA [1]; without Ct-DNA) | amplitude of τ3 time component (Ct-DNA [1]; without Ct-DNA) | lifetime τ1 (Ct-DNA [1]; without Ct-DNA) | lifetime τ2 (Ct-DNA [1]; without Ct-DNA) | lifetime τ3 (Ct-DNA [1]; without Ct-DNA) | DNA binding mode (circular dichroism) (Ct-DNA [2]) | lifetime τ1 (Ct-DNA [1]; with Ct-DNA, listed as 3h–DNA) | lifetime τ2 (Ct-DNA [1]; with Ct-DNA, listed as 3h–DNA) | lifetime τ3 (Ct-DNA [1]; with Ct-DNA, listed as 3h–DNA)
CN(C)c1ccc(C2CC(c3ccc(Cl)cc3)=NN2C(N)=S)cc1 (centres unmarked) [Compound 3a] | 28.57% | 32.78% | 38.65% | 1.38 ns | 7.23 ns | 0.29 ns | 27.81% | 33.73% | 38.46% | 1.26 ns | 7.46 ns | 0.18 ns | intercalative mode | – | – | –
CN(C)c1ccc(C2CC(c3cccc(Br)c3)=NN2C(N)=O)cc1 (centres unmarked) [Compound 3h] | 35.34% | 19.64% | 45.05% | – | – | – | 36.5% | 17.41% | 46.09% | 0.90 ns | 6.60 ns | 0.12 ns | intercalative mode | 1.0 ns | 6.73 ns | 0.21 ns
